# About 210 (0.4%) of roughly 52,000 sequences were called active.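 How the source made its calls: active means gene whose silencing raises cell survival under the drug, median off-target-corrected z-score across its silencing RNAs 2 or more; inactive means the rest.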 The list shows a part of the results.
# Experiment: Resistance to Poly (ADP-Ribose) Polymerase inhibitor: Gene Identification via Genome-wide siRNA Screen
# Conditions: mouse BRCA2 R2336H ES cells, olaparib, CellTiter-Glo viability; active compounds read high
# Summary of the method: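 Mouse BRCA2 R2336H ES cells were reverse-transfected with siRNA (20 nM final), treated at 48 h with 500 nM olaparib, and read by CellTiter-Glo after 72 h. Scores: MAD-based z per siRNA, median per gene, seed off-target correction.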
row,Sequence,z-score
1,GGUGGAGUUUGACGAUUCCTT against Car5a,inactive: -0.334
2,GGAGGAGGACAUCUUCAUCTT against Pex11c,inactive: 0.689
3,CCUCCUGAGGAAACGAUUUTT against Tdh,inactive: -1.11
4,CGAUAUGGCUGGAUUCCAUTT against 4930471G03Rik,inactive: 0.317
5,GCAUUCCAUGGUACAGGGUTT against Adamts4,inactive: -0.499
6,GCAGUGUAUACCUGGGCUATT against 1700001C19Rik,inactive: -0.699
7,GGAGCAGCUGAGAGAAAAATT against BC050811,inactive: -0.0619
8,GGAUCCUUCUCUGUAAUAUTT against 3110003A22Rik,inactive: -1.09
9,GGAACCCUCCGAAGACUAUTT against Pml,inactive: -1.24
10,GGCCAAGACCUCAGAGAUUTT against Apoa2,inactive: -0.125
11,GCCUGAUUGACUUAGAGUCTT against Eps8,inactive: 1.83
12,GCAUCCAUCUCCAUCAUGGTT against Olfr988,inactive: -0.627
13,GGCCCUUUAAAAAUAAAGCTT against Ppp1r14b,inactive: 0.0429
14,GGAACUCAAACAUGAGCGGTT against Atp5j2,inactive: -0.538
15,GGGUCAGACAUUAAUGUGATT against Traf1,inactive: 0.0675
16,GGAAAUCCUUAAAUCUGUCTT against Gk2,inactive: 1.14
17,GGCUUCCUGGCUCAUCCAATT against Etv1,inactive: -2.16
18,GCCCUGAAUGUGAAUUUGUTT against Ass,inactive: -1.16
19,CCUCAUGCCUCAUUUCAAATT against Arhgef6,inactive: -0.467
20,GGACACCCUUAUAUUUGUCTT against Olfr1216,inactive: 0.393
21,UGCGAGCUCACUGAUGUACTT against LOC384813,inactive: 3.47
22,CCGAGGACUAUUUGAAACGTT against Mkl1,inactive: 2.67
23,GCCAAUACCUAAGUUCUAUTT against F8a,inactive: -0.219
24,GUCCUUGGGACAUUCUCUUTT against Olfr168,inactive: -0.671
25,GGAACAAAAAGAUCUUUGATT against Pdzrn3,inactive: -0.323
26,GGACUAUUUGCUGAUGGACTT against Trpc6,inactive: -0.176

row,Sequence,z-score
1,GGAUUCAAACUGGUUUUCATT against 2810422B04Rik,inactive: 1.19
2,GGUACAAGAUCAAGUCUCCTT against Scml4,inactive: -0.136
3,GGGAAGAAUUCAGAAAAACTT against 2010110K16Rik,inactive: 0.543
4,GGGCAGGUCUUCUUCCUCATT against Hoxd4,inactive: -0.0735
5,GGAGACAUCCAUUGAGCUUTT against Kirrel1,inactive: -0.209
6,GGAACACUGUAUCUUACGGTT against Mtmr6,inactive: 1.42
7,CCUGGCUGUAAUCACCAUCTT against Olfr1160,inactive: -1.23
8,GCUAUGUAAGACAUUUAACTT against 5033413D22Rik,inactive: -0.0191
9,GGCUGUGUUGAAAGUUUUCTT against Olfr564,inactive: -0.117
10,GGUCCUAGCUUCCUUUUACTT against R75581,inactive: -0.51
11,CGGGUAAUAAGGAUUUGGGTT against Igsf4c,inactive: -0.0683
12,CCUGGAUAAAGAUUUUAGATT against Olfr722,inactive: 1.53
13,GCCACUACUUGAUCUAUCATT against Cd34,inactive: -0.383
14,GCGGCCAGUUCGUUAUAUUTT against Abi2,inactive: -0.595
15,GGCAGAGAUGGUGUUGAUGTT against Col1a2,inactive: 0.445
16,GGCAGAAUUGUGGAGUUCGTT against Cblc,inactive: 1.51
17,GGAGAUGUCAAUCAAACCCTT against Tmem26,inactive: 0.209
18,GGGCUCACUCCAAAUCUCUTT against D1Ertd622e,inactive: -0.565
19,CCGUUGUAUUUAUGUUUGCTT against Mrgprb5,inactive: 0.94
20,GGUGACAGUCACCAAAGAATT against Clstn1,inactive: -0.961
21,GGCAAAAGGAAGGUAGCCUTT against Cdyl,inactive: 0.655
22,GGCCUUAUCUCCCACAUCATT against LOC240549,inactive: -0.244
23,CCCAAUUGGAAACCUGAACTT against Actn3,inactive: 0.252
24,CCGGAAUAUCCACUAUAAUTT against DXImx46e,inactive: -1.17
25,GGAAGAAGAAGAGAGAGAATT against 5830402J09,inactive: -2.53
26,GGUUCCAAUGCUAUUGAAUTT against Mtac2d1,inactive: -0.357

row,Sequence,z-score
1,CAGAUCCAUCUCUUAAUGGTT against Olfr204,inactive: -0.112
2,GGCUUUUCCAAGACCUUUCTT against 9430062J17Rik,inactive: -1.66
3,GGUUUCUGCGUCUUCACCCTT against Nr3c1,inactive: -0.131
4,CCGUGAAGGGUGAACUUAUTT against 4933402O15Rik,inactive: 1.87
5,GGCAGUUUUUGGACUGUCCTT against Olfr556,inactive: -1.11
6,GGAUUGGUUUAGUCAAUAATT against Psmc4,inactive: -3.42
7,GGCCAUCAUUGUCACCGUGTT against Adra2a,inactive: -1.31
8,GGAAGUCAAAAGUGAUUAGTT against Hkr3,inactive: -1.46
9,GGUUUUCACAAGACCUCUGTT against Ptgdr,inactive: 0.327
10,GGGAGCAAAUUAGAGAAAUTT against Gsk3b,inactive: -0.761
11,GGCCAUACCUCCCUUUGAATT against Rpo1-2,inactive: -3.18
12,GCACAAUGUACAUUAAAGUTT against 0610011L14Rik,inactive: 0.921
13,CGAUCAGUGGUAUAAACUGTT against 4932425I24Rik,inactive: -0.357
14,CCAAGCUUACACUAGUGUUTT against Cdk6,inactive: 0.346
15,GGUGUGAGGAUCCUAGAGUTT against Rabl5,inactive: 0.91
16,GGUAGAGCUCACAAGAUCATT against Gmpr2,inactive: 0.695
17,GGAUUCAGCUCUCAUCAGATT against A930012O16Rik,inactive: -3.21
18,GGUCCCUGGACCAAAGAAGTT against Myb,inactive: -0.639
19,GGUACGAUGAACUCACAGATT against 1110015K06Rik,inactive: -1.59
20,GCCUGAGUUAUGUUUAAAGTT against 2610528A17Rik,inactive: 1.64
21,GGUCACUCCCACAUUUCACTT against Spred1,inactive: 0.0502
22,GGUGAAUGUAGUGUUAAAATT against 0910001A06Rik,inactive: 0.762
23,GGCCUAGAAAGGAAUGAUATT against 1110001M19Rik,inactive: 1.42
24,GUGACAGUGGCAUCAGCAUTT against 1110003E01Rik,inactive: -0.351
25,GGUAAAAGAGUCGUGUUUCTT against AI415330,inactive: -0.388
26,GCUUAUGUUUCUGCCACUCTT against Olfr1136,inactive: 0.723

# An excerpt of these results, with bars between the fields:
row | Sequence | z-score
11 | GGCCAUACCUCCCUUUGAATT against Rpo1-2 | inactive: -3.18
12 | GCACAAUGUACAUUAAAGUTT against 0610011L14Rik | inactive: 0.921
13 | CGAUCAGUGGUAUAAACUGTT against 4932425I24Rik | inactive: -0.357

# Reformatted: entries from further up
row	Sequence	z-score
4	CCGUGAAGGGUGAACUUAUTT against 4933402O15Rik	inactive: 1.87
6	GGAUUGGUUUAGUCAAUAATT against Psmc4	inactive: -3.42
9	GGUUUUCACAAGACCUCUGTT against Ptgdr	inactive: 0.327
16	GGUAGAGCUCACAAGAUCATT against Gmpr2	inactive: 0.695
21	GGUCACUCCCACAUUUCACTT against Spred1	inactive: 0.0502
26	GCUUAUGUUUCUGCCACUCTT against Olfr1136	inactive: 0.723

# Continuation.

row,Sequence,z-score
1,GGGAGGAAUAGCACAGUCATT against Olfr1440,inactive: -0.547
2,GGUUCUAGGAAAAUUAGGUTT against Olfr575,inactive: 0.387
3,GGAAAUGUCAUGACCUUGATT against Tnfaip6,inactive: -1.35
4,GCUGUCCUUUUGAAAGAUATT against 6530413N01Rik,inactive: 0.563
5,GGUCACUGUCCACAUUUAUTT against Pitrm1,inactive: -2.1
6,GGUGGAUGUCACCAGCAAGTT against Sh3gl1,inactive: 0.112
7,GGAGUAUUUCCAAACCUAUTT against Sdro,inactive: 0.426
8,GGAUGACGAAGCCUAUGAUTT against Btbd14a,inactive: -0.576
9,GGAAGCAAUUUUUUACUCATT against Itm2a,inactive: -0.284
10,UUCAUGUAGGUUUAUUAUUTT against Olfr194,inactive: 0.667
11,GGAAGAGAUCUUAAACUUATT against 4931412G03Rik,inactive: 0.627
12,GGCAAGAUAAGCUAAAUCCTT against Gpr63,inactive: 1.35
13,CCGGAUGCUGGGCUUAGAATT against Nmb,inactive: -1.17
14,CCUGUAGAUACCUCCCUACTT against Flt1,inactive: -1.69
15,GGCAAUGGAAGGAAUCUUCTT against Sdf2l1,inactive: 0.384
16,GGAGAUGUACCACAAUGCCTT against Isp2,inactive: 1.34
17,CCAAAUUUCAUAGUUUGGGTT against DXImx47e,inactive: -0.522
18,GGAGACCGUAGUGUUCAUCTT against 4933400F01Rik,inactive: 2.01
19,CGACUACCUGCUACAUGGCTT against Adipor1,inactive: 0.571
20,GCAAGAAAAUUGCACGUUGTT against 1110007C24Rik,inactive: 0.834
21,GGAGCUCUGGGACAAAUUCTT against Tbx20,inactive: -0.79
22,CCUGAACCAUGUUGAAUAUTT against 2610306H15Rik,inactive: -1.07
23,GGUGCGCUGAGAAAACUGATT against Olfr1402,inactive: 0.154
24,CCGAACUUUUUCAACAAAGTT against Eif4g2,inactive: -1.38
25,GGACCAGCUUUUCAACAUUTT against F8,inactive: -0.765

# Reference: PubChem BioAssay AID1347423 (Functional Genomics Laboratory (NCATS/FGL), 2020)
